Where a chain is given by its changes, count along the chain named. No constants are given. Whether binding was seen depends on the method and setting. In cells and extracts the contact can be indirect. Some binding calls cover weakened binding; strength is not graded here. For part of these data: Where a sequence is shown, tags or fusion partners need not be part of it.
How the values were obtained:
[1] = target: T1, Pellino1 (endogenous, mouse macrophage cells) (mouse (endogenous in RAW 264.7 and BMDMs)) (UniProt Q8C669); experiment: co-IP; endogenous proteins; lysates of RAW cells untreated or treated with 100 ng/mL LPS for 6 h; IP with anti-Pellino1 antibody and protein A/G beads overnight at 4 C, blot with anti-STAT3
T1 sequence: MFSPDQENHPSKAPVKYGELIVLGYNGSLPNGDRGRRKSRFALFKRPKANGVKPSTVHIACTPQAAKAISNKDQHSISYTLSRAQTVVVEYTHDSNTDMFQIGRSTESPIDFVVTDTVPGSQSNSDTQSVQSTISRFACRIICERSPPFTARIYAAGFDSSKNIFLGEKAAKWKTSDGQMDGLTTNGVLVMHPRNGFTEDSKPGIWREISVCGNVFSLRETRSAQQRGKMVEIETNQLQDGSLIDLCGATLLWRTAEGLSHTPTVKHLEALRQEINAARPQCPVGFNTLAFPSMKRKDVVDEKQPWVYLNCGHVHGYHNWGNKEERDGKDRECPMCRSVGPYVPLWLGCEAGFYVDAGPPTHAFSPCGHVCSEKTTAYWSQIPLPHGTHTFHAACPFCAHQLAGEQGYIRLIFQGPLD

Protein sequences, listed by entry. Tags and fused reporters are not part of them.
UniProt P40763: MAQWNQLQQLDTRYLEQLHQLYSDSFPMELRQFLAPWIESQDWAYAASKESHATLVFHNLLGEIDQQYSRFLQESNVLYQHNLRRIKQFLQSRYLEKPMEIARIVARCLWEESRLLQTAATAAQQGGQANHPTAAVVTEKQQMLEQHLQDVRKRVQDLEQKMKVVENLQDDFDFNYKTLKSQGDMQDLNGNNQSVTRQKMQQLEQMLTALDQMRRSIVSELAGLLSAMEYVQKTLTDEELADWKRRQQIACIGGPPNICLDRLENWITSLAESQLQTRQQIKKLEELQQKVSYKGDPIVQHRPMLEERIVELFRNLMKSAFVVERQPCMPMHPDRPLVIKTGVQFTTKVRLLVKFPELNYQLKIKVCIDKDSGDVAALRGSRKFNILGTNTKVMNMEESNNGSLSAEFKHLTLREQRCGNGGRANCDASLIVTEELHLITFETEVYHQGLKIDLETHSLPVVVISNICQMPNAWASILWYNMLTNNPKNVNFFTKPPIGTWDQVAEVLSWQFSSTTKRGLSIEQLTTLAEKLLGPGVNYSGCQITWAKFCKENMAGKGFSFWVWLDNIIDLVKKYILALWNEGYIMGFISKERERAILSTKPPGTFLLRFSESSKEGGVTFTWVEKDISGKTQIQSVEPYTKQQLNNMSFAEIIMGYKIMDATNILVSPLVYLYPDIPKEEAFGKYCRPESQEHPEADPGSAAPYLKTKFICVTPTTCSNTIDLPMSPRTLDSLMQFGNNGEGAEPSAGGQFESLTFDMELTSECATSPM
UniProt P42227: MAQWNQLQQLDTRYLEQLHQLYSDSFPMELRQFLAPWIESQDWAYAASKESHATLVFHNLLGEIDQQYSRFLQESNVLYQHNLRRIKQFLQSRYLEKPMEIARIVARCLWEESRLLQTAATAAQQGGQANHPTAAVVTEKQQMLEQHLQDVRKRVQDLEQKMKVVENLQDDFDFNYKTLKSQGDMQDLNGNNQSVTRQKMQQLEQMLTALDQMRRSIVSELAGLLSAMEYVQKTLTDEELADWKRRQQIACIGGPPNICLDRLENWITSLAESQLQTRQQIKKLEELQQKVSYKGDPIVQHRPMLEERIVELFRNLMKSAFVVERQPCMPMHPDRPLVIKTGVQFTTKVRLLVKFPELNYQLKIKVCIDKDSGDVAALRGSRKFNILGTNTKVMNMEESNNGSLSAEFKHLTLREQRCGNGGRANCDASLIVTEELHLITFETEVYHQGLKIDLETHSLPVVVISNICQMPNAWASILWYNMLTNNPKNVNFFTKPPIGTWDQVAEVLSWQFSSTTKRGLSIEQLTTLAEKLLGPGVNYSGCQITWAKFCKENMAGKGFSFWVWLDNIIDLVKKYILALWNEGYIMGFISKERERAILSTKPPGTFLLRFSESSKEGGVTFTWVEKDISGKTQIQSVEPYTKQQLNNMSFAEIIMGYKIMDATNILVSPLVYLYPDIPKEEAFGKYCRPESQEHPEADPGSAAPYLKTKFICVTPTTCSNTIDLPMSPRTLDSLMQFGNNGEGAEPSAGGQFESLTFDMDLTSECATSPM

[2] = target: T2, Myc-tagged full-length Pellino1 (human) (UniProt Q96FA3); experiment: co-IP; HEK293T cells transfected with Myc-Pellino1 and Flag-STAT3 (WT or Y705F); IP with anti-Myc antibody overnight at 4 C, blot with anti-Flag; IP lysis buffer 50 mM Tris-HCl pH 7.4, 150 mM NaCl, 1 mM EDTA, 0.25% sodium deoxycholate, 1% NP-40
T2 sequence: T1 sequence with S146N

[3] = target: GST-STAT3 (UniProt P40763); experiment: pull-down; GST or GST-STAT3 (2 ug) rotated overnight at 4 C with 1000 ug lysate of RAW cells (with or without 100 ng/mL LPS for 6 h) or of BMDMs; lysis buffer 50 mM Tris-HCl pH 7.4, 150 mM NaCl, 1% Tween 20, 0.2% NP-40, 10% glycerol; blot for Pellino1; only the target purified

With “STAT3 (endogenous, RAW cells) (from UniProt P42227 1-770)” the binding [1] was “binds”.

“Flag-tagged STAT3 (from UniProt P40763 1-770)” was tested, and the binding [2] was “binds”.

B1: Pellino1 (endogenous, mouse macrophage cells) (protein, UniProt Q8C669 1-418)
chain: T1 sequence
In the case of B1, the binding [3] is reported as “binds”.

From article PMC11787384
